Laboratory results as given in US8778959B2, “AZA-bridged ring-fused indoles and indolines” (AbbVie Inc., priority 2009, dated 2014).
At least one read-out could not be matched to a standard name with certainty.

Test system: SK-N-SH human neuroblastoma cells
Experiment: Serum Deprivation/JC-1 Mitochondrial Membrane Potential (MMP) Assay
Assay type: cell-based
Conditions: percent maximal intensity in JC-1 ratio normalized to peak value for 10 μM dimebolin
Protocol: SK-N-SH human neuroblastoma cells obtained from American Type Culture Collection (Rockville, Md.) were maintained in the log phase of growth in Minimal Essential Media (MEM), 10% heat inactivated fetal calf serum and 100 units/mL antibiotic-antimycotic (AA). Cells were cultured and maintained in a humidified incubator at 37° C. under 5% CO2 and 95% air. Cells were trypsinized (0.25%) and subcultured every 3 days and used from 15-18 passages. All cell culture supplies were obtained from Invitrogen (Carlsbad, Calif.).
SK-N-SH cells were plated 2-3 days in advance at a concentration of 50,000 cells/well onto collagen coated black-walled 96 well plates (Becton-Dickinson, Bedford, Mass.) in a total volume of 200 μL. On day of experimental treatment, the media containing serum was aspirated from each well and rinsed once with MEM/1% AA without serum. […] The plates were read with an excitation and emission of 560 nm and 595 nM for red fluorescence and with an excitation and emission of […] and 535 nM for green fluorescence to determine the final JC-1 value taking the red to green fluorescence ratio. This assay is based on change in mitochondrial membrane potential (MMP) using this lipophilic cationic dye, JC-1, by monitoring the changes in the ratio of red to green fluorescence as the MMP depolarizes. […]

SMILES: Cc1ccc(/C=C/c2cccc3c4c([nH]c23)C[C@H]2CC[C@@H]4N2)cn1 (single isomer, unassigned) [Example 25]
- JC-1 max %: 180%
